{
  "sequences": {"note": "Amino acid sequences for entries named in this document (tags omitted). A change or cut given only in a name is not applied to a line headed by its entry. Residues count along the entry.", "UniProt Q16610, residues 20-540": "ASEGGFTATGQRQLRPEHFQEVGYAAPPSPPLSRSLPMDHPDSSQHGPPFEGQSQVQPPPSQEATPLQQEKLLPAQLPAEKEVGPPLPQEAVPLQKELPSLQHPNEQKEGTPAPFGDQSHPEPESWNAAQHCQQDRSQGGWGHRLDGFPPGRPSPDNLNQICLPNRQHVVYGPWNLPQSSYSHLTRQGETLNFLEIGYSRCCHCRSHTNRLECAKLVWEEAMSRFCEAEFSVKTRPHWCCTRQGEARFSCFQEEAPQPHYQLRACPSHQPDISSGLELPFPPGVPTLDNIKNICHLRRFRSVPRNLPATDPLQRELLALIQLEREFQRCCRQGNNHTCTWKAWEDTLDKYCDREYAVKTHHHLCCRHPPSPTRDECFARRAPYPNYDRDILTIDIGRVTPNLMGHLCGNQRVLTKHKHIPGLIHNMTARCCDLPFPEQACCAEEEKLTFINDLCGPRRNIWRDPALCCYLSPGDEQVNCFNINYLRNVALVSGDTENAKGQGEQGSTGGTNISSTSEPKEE", "UniProt P07355": "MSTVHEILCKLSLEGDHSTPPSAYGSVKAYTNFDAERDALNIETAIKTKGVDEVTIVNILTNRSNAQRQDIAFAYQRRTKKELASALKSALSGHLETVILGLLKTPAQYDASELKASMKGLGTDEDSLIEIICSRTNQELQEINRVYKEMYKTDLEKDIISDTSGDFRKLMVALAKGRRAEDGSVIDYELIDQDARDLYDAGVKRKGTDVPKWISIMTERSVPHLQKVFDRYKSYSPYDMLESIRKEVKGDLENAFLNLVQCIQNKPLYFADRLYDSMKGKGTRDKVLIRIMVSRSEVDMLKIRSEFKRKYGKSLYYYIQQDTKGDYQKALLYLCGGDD", "UniProt P27824, residues 21-592": "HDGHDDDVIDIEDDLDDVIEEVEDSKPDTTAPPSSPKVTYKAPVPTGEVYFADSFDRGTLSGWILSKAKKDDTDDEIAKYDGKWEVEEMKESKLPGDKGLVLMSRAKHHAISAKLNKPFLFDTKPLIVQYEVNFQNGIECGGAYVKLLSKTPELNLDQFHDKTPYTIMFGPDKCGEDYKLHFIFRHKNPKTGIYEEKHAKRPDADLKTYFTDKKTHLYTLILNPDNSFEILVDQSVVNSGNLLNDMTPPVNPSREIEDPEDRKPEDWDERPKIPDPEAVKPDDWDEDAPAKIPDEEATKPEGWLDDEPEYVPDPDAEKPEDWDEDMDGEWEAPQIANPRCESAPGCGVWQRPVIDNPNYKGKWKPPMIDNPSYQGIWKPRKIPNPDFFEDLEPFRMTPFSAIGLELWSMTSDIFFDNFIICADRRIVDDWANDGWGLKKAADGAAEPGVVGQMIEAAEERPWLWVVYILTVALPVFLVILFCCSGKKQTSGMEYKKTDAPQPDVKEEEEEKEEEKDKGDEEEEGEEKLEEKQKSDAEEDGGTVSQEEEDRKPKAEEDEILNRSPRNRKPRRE", "UniProt P05556": "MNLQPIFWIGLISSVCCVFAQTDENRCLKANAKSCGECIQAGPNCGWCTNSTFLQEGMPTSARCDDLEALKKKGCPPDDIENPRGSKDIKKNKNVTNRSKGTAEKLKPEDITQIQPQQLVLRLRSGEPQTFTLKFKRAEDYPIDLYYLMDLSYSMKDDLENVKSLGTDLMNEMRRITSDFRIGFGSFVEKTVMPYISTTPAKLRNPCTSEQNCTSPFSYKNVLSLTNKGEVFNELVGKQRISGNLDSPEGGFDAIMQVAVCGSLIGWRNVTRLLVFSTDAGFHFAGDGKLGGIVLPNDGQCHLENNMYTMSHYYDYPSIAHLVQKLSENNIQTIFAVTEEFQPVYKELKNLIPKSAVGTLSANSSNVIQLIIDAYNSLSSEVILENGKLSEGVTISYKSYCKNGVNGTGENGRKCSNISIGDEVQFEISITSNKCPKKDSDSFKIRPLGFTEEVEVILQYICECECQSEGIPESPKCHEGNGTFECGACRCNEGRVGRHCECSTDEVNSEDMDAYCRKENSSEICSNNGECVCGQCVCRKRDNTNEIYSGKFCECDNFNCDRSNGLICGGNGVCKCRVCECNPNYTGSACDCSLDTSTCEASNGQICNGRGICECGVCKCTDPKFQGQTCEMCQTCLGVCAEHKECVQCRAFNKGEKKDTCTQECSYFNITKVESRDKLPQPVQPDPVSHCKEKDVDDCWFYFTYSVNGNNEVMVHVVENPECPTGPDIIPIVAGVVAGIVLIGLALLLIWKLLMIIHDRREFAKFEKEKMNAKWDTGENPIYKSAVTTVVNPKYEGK"},
  "source": "paper PMC8270969",
  "molecules": {"B1": {"name": "JUP (protein, UniProt P14923 1-745)", "chain": "MEVMNLMEQPIKVTEWQQTYTYDSGIHSGANTCVPSVSSKGIMEEDEACGRQYTLKKTTTYTQGVPPSQGDLEYQMSTTARAKRVREAMCPGVSGEDSSLLLATQVEGQATNLQRLAEPSQLLKSAIVHLINYQDDAELATRALPELTKLLNDEDPVVVTKAAMIVNQLSKKEASRRALMGSPQLVAAVVRTMQNTSDLDTARCTTSILHNLSHHREGLLAIFKSGGIPALVRMLSSPVESVLFYAITTLHNLLLYQEGAKMAVRLADGLQKMVPLLNKNNPKFLAITTDCLQLLAYGNQESKLIILANGGPQALVQIMRNYSYEKLLWTTSRVLKVLSVCPSNKPAIVEAGGMQALGKHLTSNSPRLVQNCLWTLRNLSDVATKQEGLESVLKILVNQLSVDDVNVLTCATGTLSNLTCNNSKNKTLVTQNSGVEALIHAILRAGDKDDITEPAVCALRHLTSRHPEAEMAQNSVRLNYGIPAIVKLLNQPNQWPLVKATIGLIRNLALCPANHAPLQEAAVIPRLVQLLVKAHQDAQRHVAAGTQQPYTDGVRMEEIVEGCTGALHILARDPMNRMEIFRLNTIPLFVQLLYSSVENIQRVAAGVLCELAQDKEAADAIDAEGASAPLMELLHSRNEGTATYAAAVLFRISEDKNPDYRKRVSVELTNSLFKHDPAAWEAAQSMIPINEPYGDDMDATYRPMYSSDVPLDPLEMHMDMDGDYPIDTYSDGLRPPYPTADHMLA"}, "B2": {"name": "S100A9 (protein, UniProt P06702 1-114)", "chain": "MTCKMSQLERNIETIINTFHQYSVKLGHPDTLNQGEFKELVRKDLQNFLKKENKNEKVIEHIMEDLDTNADKQLSFEEFIMLMARLTWASHEKMHEGDEGPGHHHKPGLGEGTP"}, "B3": {"name": "plakophilin-1 (protein, UniProt Q13835 1-747)", "chain": "MNHSPLKTALAYECFQDQDNSTLALPSDQKMKTGTSGRQRVQEQVMMTVKRQKSKSSQSSTLSHSNRGSMYDGLADNYNYGTTSRSSYYSKFQAGNGSWGYPIYNGTLKREPDNRRFSSYSQMENWSRHYPRGSCNTTGAGSDICFMQKIKASRSEPDLYCDPRGTLRKGTLGSKGQKTTQNRYSFYSTCSGQKAIKKCPVRPPSCASKQDPVYIPPISCNKDLSFGHSRASSKICSEDIECSGLTIPKAVQYLSSQDEKYQAIGAYYIQHTCFQDESAKQQVYQLGGICKLVDLLRSPNQNVQQAAAGALRNLVFRSTTNKLETRRQNGIREAVSLLRRTGNAEIQKQLTGLLWNLSSTDELKEELIADALPVLADRVIIPFSGWCDGNSNMSREVVDPEVFFNATGCLRKRLGMRELLALVPQRATSSRVNLSSADAGRQTMRNYSGLIDSLMAYVQNCVAASRCDDKSVENCMCVLHNLSYRLDAEVPTRYRQLEYNARNAYTEKSSTGCFSNKSDKMMNNNYDCPLPEEETNPKGSGWLYHSDAIRTYLNLMGKSKKDATLEACAGALQNLTASKGLMSSGMSQLIGLKEKGLPQIARLLQSGNSDVVRSGASLLSNMSRHPLLHRVMGNQVFPEVTRLLTSHTGNTSNSEDILSSACYTVRNLMASQPQLAKQYFSSSMLNNIINLCRSSASPKAAEAARLLLSDMWSSKELQGVLRQQGFDRNMLGTLAGANSLRNFTSRF"}, "B4": {"name": "S100A8 (protein, UniProt P05109 1-93)", "chain": "MLTELEKALNSIIDVYHKYSLIKGNFHAVYRDDLKKLLETECPQYIRKKGADVWFKELDINTDGAVNFQEFLILVIKMGVAAHKKSHEESHKE"}},
  "key": {"[1]": {"molecular_target": "HA-tagged ECM1a (extracellular matrix protein-1, secretory isoform a), wild type (human) (UniProt Q16610)", "assay": "affinity purification with mass spectrometry + co-IP; HA antibody on total cell lysates or membrane fractions of ECM1a-WT or ECM1a-MT cells, or membrane fractions of HeyA8 cells pretreated with their conditioned medium; selected bands by MS, confirmed by co-IP"}, "[2]": {"molecular_target": "HA-tagged ECM1a mutant with VAQ instead of the GPR motif (human) (UniProt Q16610)", "assay": "affinity purification with mass spectrometry + co-IP; HA antibody on total cell lysates or membrane fractions of ECM1a-WT or ECM1a-MT cells, or membrane fractions of HeyA8 cells pretreated with their conditioned medium; selected bands by MS, confirmed by co-IP"}},
  "note": "Results are given in words; binding and its absence hold for the method and conditions named. Binding seen in cells or lysates may run through a third protein. Here binding means that the protein was enriched with, or labelled near, the bait; the list need not be complete.",
  "data": [
    {"molecule": "annexin A2 (from UniProt P07355 1-339)", "values": [
      {"measurement": "binding", "setting": "[1]", "value": "binds"}
    ]},
    {"molecule": "calnexin (from UniProt P27824 21-592)", "values": [
      {"measurement": "binding", "setting": "[1]", "value": "binds"}
    ]},
    {"molecule": "integrin β1 (from UniProt P05556 21-798) (receptor)", "values": [
      {"measurement": "binding", "setting": "[1]", "value": "binds"}
    ]},
    {"molecule": "B1", "values": [
      {"measurement": "binding", "setting": "[1]", "value": "binds"}
    ]},
    {"molecule": "B2", "values": [
      {"measurement": "binding", "setting": "[1]", "value": "binds"}
    ]},
    {"molecule": "B3", "values": [
      {"measurement": "binding", "setting": "[2]", "value": "binds"}
    ]},
    {"molecule": "B4", "values": [
      {"measurement": "binding", "setting": "[2]", "value": "binds"}
    ]}
  ]
}
